PubChem BioAssay AID1508597 | Cure First – 2020
Test: 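Knock-downs altering ovarian cancer cell survival with or without PARP inhibitor rucaparib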 (primary screen). Cells: human ovarian carcinoma lines grown from tumours: OCI-P5x (papillary serous) and OCI-C5x (clear cell). Reagents: siRNA pool against human genes, 1.25 pmol siRNA per well. Time to read-out: 72 h or 96 h, depending on the cell culture. Conditions: rucaparib 20 µM (about IC30) or vehicle, present until read-out. Rucaparib or vehicle: Rucaparib. Cell line: OCI-C5x (clear cell). Measurement: 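Luminescent ATP-based viability assay read 72 or 96 h after transfection, depending on culture, given as normalised percent viability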. Direction: viability, normalised: higher = more viable cells remaining. Active means: 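a well counts as a hit if its normalised viability is under 80 percent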. Calls: active = viability under 80%; inactive = viability 80% or more.
Shown is an unselected part of the about 2,100 reagents, under one of the conditions tested. 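Calls flag viability under 80% in either arm, not effects specific to rucaparib; the reference for percent is not stated.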 Some reagents were tested in more than one well and are listed for each. The record does not give: the 100% reference.

no.	gene knocked down	technical replicate	viability, normalised (%)	call
1	CENPO (centromere protein O)	1	65.6	active
2	CENPO (centromere protein O)	2	63.1	active
3	CENPO (centromere protein O)	3	73.3	active
4	RP2 (RP2 activator of ARL3 GTPase)	1	47.2	active
5	RP2 (RP2 activator of ARL3 GTPase)	2	48.5	active
6	RP2 (RP2 activator of ARL3 GTPase)	3	38.4	active
7	PAN3 (poly(A) specific ribonuclease subunit PAN3)	1	74.7	active
8	PAN3 (poly(A) specific ribonuclease subunit PAN3)	2	57.5	active
9	PAN3 (poly(A) specific ribonuclease subunit PAN3)	3	70.1	active
10	DROSHA (drosha ribonuclease III)	1	49.4	active
11	DROSHA (drosha ribonuclease III)	2	35.1	active
12	DROSHA (drosha ribonuclease III)	3	57.5	active
13	RAPGEF4 (Rap guanine nucleotide exchange factor 4)	1	65.1	active
14	RAPGEF4 (Rap guanine nucleotide exchange factor 4)	2	53.1	active
15	RAPGEF4 (Rap guanine nucleotide exchange factor 4)	3	64	active
16	NDUFA10 (NADH:ubiquinone oxidoreductase subunit A10)	1	72.2	active
17	NDUFA10 (NADH:ubiquinone oxidoreductase subunit A10)	2	66.6	active
18	NDUFA10 (NADH:ubiquinone oxidoreductase subunit A10)	3	60	active
19	PSENEN (presenilin enhancer, gamma-secretase subunit)	1	44	active
20	PSENEN (presenilin enhancer, gamma-secretase subunit)	2	61.2	active
21	PSENEN (presenilin enhancer, gamma-secretase subunit)	3	46.7	active
22	BLM (BLM RecQ like helicase)	1	83.2	inactive
23	BLM (BLM RecQ like helicase)	1	66.5	active
24	BLM (BLM RecQ like helicase)	2	48.5	active
25	BLM (BLM RecQ like helicase)	2	80.8	inactive
26	BLM (BLM RecQ like helicase)	3	50.2	active
27	BLM (BLM RecQ like helicase)	3	83.7	inactive
